Experimental data from paper PMC2824085.
No constants are given. Whether binding was seen depends on the method and setting. Some binding calls cover weakened binding; strength is not graded here.

By UniProt entry, the sequences of proteins in these tests, tags left out. Residues count along the entry.
UniProt P02769, residues 25-607: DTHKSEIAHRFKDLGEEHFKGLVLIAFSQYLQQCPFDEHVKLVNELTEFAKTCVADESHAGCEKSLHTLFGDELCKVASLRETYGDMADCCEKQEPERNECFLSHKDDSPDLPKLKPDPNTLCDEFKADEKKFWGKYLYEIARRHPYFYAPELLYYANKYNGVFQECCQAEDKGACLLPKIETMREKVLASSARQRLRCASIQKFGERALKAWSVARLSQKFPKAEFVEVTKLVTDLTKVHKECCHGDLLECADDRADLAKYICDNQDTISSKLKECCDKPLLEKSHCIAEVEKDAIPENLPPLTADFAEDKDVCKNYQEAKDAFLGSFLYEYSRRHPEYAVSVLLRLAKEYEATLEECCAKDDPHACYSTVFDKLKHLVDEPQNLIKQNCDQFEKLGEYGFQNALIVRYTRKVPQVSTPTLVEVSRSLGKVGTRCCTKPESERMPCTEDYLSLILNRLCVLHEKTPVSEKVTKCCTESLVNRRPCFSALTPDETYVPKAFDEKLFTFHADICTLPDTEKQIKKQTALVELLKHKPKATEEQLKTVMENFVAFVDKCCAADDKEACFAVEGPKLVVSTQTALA

Biological target: T1, trimeric extracellular domain (ECD) of rat macrophage galactose lectin (MGL) (rat) (UniProt P49301)
T1 sequence: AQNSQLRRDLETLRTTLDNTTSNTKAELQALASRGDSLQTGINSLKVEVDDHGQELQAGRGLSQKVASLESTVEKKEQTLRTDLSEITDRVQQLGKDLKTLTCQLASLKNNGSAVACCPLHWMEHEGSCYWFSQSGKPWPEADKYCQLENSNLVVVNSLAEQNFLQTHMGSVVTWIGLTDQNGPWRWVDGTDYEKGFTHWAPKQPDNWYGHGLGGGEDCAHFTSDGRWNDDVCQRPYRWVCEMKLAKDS
Assay: radioligand binding; competition: CRD or ECD of MGL coated on polystyrene wells, 125I-labeled Gal-BSA as reporter ligand, competing ligand titrated; KI = concentration for 50% inhibition; both purified

- binding: binds
Substance: 125I-labeled Gal-BSA (from UniProt P02769 25-607)
